PubChem BioAssay AID1259424, University of Nebraska Medical Center, 2018
The whole screen tested about 14,000 reagents; this is an unselected part. 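Higher correlation or smaller distance means closer resemblance to KSR1 loss; control wells, including KSR1 knockdowns, recur on many plates.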 Further read-outs or replicates are left out here. Not stated in the record: the time to read-out.

Assay: 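Rank knockdowns across the genome by resemblance to the KSR1 depletion profile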 (primary screen)
Cell system: human HCT116 colon cancer cells
Reagent: siRNA pool against human genes, 50 nM
Measurement: 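Log2 levels of six mRNAs (branched-DNA multiplex), adjusted by two reference genes and the non-targeting median, then scored against the average KSR1 knockdown pattern as Pearson r and euclidean distance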
Direction: mean correlation with KSR1 profile: higher = expression change more like KSR1 knockdown; mean distance from KSR1 profile: higher = expression change less like KSR1 knockdown

| Target gene | mean correlation with KSR1 profile | mean distance from KSR1 profile |
| --- | --- | --- |
| PPM1B (GeneID 5495) | -0.0657 | 3.35 |
| AJAP1 (GeneID 55966) | -0.0912 | 2.94 |
| SYDE1 (GeneID 85360) | -0.371 | 2.36 |
| ZMAT1 (GeneID 84460) | 0.209 | 2.29 |
| KLHL21 (GeneID 9903) | -0.383 | 2.27 |
| CSTB (GeneID 1476) | -0.463 | 3.03 |
| OSMR (GeneID 9180) | -0.518 | 1.82 |
| PC (GeneID 5091) | 0.48 | 1.74 |
| ATP8A1 (GeneID 10396) | -0.131 | 2.92 |
| SETD4 (GeneID 54093) | -0.0308 | 3.86 |
| SMR3B (GeneID 10879) | -0.38 | 4.04 |
| SOX9 (GeneID 6662) | 0.141 | 3.39 |
| NIF3L1 (GeneID 60491) | -0.547 | 3.13 |
| ZFR2 (GeneID 23217) | 0.12 | 1.41 |
| HERC5 (GeneID 51191) | -0.82 | 1.56 |
| C4A (GeneID 720) | 0.136 | 2.5 |
| PRUNE2 (GeneID 158471) | -0.061 | 1.57 |
| DNAJC17 (GeneID 55192) | -0.12 | 3.93 |

Entries above whose gene name starts with S or s:
| Target gene | mean correlation with KSR1 profile | mean distance from KSR1 profile |
| --- | --- | --- |
| SYDE1 (GeneID 85360) | -0.371 | 2.36 |
| SETD4 (GeneID 54093) | -0.0308 | 3.86 |
| SMR3B (GeneID 10879) | -0.38 | 4.04 |
| SOX9 (GeneID 6662) | 0.141 | 3.39 |

Further records:
| Target gene | mean correlation with KSR1 profile | mean distance from KSR1 profile |
| --- | --- | --- |
| HSPC047 (retired record) (GeneID 29060) | -0.568 | 3.16 |
| HMGA2 (GeneID 8091) | -0.029 | 3.15 |
| JCHAIN (GeneID 3512) | 0.0758 | 2.99 |
| HBEGF (GeneID 1839) | -0.171 | 2.42 |
| PHAX (GeneID 51808) | 0.581 | 1.26 |
| SAR1B (GeneID 51128) | -0.611 | 2.52 |
| SEZ6L2 (GeneID 26470) | -0.405 | 2.07 |
| EDEM2 (GeneID 55741) | -0.0569 | 2.12 |
| BPIFB2 (GeneID 80341) | 0.631 | 2.24 |
| GPR135 (GeneID 64582) | 0.272 | 1.46 |
| ZNF229 (GeneID 7772) | 0.218 | 2.88 |
| C17orf75 (GeneID 64149) | 0.137 | 2.02 |
| GZMM (GeneID 3004) | -0.54 | 5.27 |
| STEEP1 (GeneID 63932) | -0.142 | 2.19 |
| PPARG (GeneID 5468) | -0.229 | 2.59 |
| RAB29 (GeneID 8934) | -0.174 | 2.11 |
